In PMC9890722:
No constants are given. Whether binding was seen depends on the method and setting. Binding seen in cells or lysates may run through a third protein. Some results given as binding are weak or reduced against the parent protein; the word gives no strength. For some of these results: Where a sequence is shown, tags or fusion partners need not be part of it. Values belong to the binder of their own block, whether it stands above or below them.

By UniProt entry, the sequences of proteins in these tests, tags left out.
UniProt O95714: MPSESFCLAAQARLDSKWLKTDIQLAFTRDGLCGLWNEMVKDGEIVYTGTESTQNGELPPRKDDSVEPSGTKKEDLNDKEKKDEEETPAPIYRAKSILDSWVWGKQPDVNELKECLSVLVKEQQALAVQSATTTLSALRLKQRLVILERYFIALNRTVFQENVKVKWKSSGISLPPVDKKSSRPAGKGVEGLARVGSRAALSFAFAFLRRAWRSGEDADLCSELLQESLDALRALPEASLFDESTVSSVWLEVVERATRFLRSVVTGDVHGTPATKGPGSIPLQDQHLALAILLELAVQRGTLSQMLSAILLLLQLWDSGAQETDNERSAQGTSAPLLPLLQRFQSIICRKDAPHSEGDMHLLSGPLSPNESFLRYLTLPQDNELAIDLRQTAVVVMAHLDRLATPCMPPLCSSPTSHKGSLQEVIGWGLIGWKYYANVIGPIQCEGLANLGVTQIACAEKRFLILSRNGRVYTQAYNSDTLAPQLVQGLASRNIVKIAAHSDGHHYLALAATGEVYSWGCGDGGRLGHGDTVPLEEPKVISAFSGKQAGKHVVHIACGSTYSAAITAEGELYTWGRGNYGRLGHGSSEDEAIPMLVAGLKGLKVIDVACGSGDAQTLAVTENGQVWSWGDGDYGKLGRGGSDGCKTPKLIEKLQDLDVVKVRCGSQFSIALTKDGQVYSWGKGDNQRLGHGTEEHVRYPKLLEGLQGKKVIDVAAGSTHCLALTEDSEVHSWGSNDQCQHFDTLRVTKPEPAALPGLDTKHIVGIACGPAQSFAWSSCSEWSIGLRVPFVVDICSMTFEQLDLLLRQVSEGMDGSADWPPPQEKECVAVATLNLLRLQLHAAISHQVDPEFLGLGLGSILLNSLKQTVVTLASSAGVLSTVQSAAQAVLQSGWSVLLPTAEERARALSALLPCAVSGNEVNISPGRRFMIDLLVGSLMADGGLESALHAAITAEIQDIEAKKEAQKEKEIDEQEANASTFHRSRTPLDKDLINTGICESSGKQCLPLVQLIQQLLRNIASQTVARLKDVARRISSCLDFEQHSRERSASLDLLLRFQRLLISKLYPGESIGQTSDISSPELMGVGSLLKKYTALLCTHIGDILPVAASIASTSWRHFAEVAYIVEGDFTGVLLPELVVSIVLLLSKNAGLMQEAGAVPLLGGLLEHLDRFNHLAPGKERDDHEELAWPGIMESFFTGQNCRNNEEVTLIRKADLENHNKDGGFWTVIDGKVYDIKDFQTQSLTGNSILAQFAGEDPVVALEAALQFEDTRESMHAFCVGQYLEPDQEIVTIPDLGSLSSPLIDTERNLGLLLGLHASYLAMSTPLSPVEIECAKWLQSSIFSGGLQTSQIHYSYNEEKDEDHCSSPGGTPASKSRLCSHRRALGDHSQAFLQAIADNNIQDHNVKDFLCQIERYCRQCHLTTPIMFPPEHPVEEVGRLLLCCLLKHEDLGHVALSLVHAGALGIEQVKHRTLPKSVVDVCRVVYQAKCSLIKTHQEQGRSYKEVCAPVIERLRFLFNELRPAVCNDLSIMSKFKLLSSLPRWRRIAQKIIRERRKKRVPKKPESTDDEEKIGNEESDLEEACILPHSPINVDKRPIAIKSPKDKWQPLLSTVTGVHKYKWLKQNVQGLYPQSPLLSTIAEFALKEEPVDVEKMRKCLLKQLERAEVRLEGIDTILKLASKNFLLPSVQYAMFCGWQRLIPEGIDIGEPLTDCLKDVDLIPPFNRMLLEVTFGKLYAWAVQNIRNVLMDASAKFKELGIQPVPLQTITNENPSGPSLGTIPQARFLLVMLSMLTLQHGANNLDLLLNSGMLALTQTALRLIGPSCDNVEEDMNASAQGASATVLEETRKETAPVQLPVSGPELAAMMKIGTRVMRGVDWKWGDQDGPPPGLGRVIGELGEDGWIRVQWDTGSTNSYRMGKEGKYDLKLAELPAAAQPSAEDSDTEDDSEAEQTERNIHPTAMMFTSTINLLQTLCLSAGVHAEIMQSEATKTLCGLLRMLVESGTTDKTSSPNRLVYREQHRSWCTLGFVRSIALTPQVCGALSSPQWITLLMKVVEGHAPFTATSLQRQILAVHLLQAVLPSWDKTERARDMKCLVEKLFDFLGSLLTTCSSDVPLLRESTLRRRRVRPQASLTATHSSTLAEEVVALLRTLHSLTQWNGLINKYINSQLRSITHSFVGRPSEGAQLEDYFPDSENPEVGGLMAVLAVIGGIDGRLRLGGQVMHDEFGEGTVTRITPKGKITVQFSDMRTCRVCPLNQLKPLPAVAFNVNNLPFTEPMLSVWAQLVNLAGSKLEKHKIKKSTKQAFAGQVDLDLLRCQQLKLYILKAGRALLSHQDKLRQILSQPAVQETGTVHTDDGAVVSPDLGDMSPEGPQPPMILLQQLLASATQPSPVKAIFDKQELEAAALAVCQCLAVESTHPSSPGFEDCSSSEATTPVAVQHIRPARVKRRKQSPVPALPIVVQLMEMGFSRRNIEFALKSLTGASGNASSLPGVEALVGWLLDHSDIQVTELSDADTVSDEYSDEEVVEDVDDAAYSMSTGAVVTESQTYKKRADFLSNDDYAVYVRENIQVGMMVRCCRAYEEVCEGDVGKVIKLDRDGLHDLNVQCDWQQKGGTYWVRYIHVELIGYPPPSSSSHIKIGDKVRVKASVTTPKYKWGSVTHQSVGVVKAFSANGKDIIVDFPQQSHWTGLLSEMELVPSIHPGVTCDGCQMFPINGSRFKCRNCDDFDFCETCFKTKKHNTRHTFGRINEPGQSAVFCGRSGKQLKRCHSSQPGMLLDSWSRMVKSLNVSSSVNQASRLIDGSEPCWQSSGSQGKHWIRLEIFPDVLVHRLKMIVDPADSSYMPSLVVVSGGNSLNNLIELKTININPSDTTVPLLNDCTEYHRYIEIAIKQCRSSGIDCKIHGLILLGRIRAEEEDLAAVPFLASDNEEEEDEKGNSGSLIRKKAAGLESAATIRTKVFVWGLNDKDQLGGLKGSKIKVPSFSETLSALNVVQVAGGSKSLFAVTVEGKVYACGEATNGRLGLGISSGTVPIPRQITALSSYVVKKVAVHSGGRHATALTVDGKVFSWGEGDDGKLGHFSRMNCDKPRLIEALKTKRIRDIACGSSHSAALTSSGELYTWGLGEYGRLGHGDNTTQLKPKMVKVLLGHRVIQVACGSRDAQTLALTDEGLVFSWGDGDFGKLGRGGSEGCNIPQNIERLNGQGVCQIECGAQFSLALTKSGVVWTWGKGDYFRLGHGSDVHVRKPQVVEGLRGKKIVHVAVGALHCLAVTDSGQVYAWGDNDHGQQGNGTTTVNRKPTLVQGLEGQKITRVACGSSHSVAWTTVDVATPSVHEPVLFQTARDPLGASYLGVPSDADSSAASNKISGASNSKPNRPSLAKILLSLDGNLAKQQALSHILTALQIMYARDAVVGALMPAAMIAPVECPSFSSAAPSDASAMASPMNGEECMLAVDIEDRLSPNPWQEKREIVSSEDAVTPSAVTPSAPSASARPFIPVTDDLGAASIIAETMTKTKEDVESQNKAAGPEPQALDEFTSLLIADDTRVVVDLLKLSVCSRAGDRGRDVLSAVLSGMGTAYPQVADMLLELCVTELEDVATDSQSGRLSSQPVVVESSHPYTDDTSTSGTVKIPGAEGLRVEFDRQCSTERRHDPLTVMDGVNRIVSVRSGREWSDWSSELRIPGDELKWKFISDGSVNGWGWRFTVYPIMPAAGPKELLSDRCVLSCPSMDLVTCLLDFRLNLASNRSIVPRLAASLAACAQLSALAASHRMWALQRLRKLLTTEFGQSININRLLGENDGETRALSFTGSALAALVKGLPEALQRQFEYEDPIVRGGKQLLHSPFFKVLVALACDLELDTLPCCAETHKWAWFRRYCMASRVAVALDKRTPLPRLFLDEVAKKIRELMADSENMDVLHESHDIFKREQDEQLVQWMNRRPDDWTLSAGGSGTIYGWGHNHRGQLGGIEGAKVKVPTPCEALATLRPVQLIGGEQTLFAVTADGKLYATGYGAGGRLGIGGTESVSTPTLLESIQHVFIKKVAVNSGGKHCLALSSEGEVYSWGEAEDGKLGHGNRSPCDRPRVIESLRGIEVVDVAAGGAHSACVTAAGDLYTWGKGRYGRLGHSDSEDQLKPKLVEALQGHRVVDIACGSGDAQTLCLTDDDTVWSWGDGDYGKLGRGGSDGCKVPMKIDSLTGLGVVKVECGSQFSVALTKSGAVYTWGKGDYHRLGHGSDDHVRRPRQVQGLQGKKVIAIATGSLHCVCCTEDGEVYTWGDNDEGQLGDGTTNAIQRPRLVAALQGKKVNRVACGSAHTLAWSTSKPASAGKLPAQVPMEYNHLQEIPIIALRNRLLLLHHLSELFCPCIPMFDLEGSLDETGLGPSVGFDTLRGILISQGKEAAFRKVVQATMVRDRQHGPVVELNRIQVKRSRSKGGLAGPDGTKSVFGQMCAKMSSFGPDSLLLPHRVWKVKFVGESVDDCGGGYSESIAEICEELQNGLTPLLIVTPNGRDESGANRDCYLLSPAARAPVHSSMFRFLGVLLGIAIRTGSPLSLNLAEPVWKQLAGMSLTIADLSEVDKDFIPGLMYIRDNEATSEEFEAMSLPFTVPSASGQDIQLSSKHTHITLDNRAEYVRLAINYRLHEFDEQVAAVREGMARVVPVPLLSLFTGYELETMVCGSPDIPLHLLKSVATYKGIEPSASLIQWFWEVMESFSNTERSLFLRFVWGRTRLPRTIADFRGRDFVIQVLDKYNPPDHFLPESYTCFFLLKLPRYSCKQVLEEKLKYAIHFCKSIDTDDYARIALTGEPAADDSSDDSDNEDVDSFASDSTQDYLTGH
UniProt O60674: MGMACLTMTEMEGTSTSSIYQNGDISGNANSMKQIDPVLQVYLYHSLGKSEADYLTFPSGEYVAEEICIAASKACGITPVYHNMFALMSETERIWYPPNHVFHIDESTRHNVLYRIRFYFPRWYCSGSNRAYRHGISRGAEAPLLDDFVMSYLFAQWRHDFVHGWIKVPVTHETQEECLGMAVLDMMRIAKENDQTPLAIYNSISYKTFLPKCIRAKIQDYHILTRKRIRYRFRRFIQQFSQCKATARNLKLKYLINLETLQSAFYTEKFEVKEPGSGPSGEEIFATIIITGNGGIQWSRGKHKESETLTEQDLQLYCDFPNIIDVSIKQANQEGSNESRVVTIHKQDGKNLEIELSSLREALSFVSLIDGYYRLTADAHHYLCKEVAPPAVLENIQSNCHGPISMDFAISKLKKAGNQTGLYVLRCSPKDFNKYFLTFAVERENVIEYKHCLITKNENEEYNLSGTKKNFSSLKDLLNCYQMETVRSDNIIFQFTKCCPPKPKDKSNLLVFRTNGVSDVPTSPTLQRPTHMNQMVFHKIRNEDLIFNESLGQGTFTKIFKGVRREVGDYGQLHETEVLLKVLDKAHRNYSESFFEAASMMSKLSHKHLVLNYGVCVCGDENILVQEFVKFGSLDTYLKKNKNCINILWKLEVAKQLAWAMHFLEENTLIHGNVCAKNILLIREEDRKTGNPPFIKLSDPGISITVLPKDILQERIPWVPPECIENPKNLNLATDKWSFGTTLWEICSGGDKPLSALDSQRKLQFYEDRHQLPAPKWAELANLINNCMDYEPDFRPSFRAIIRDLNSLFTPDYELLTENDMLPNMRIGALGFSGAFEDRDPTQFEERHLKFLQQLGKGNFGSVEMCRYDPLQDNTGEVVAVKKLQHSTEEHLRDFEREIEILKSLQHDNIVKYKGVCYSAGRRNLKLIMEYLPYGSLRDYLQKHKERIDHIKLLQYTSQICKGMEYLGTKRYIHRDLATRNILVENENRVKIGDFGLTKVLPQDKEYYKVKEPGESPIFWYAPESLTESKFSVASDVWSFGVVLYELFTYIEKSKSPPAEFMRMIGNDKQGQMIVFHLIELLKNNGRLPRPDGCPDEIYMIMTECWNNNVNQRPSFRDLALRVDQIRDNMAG

Experiments:
[1] = target: HECT and RLD domain-containing E3 ubiquitin-protein ligase 2 (HERC2) (human (endogenous in Huh7)) (UniProt O95714); test: co-IP; endogenous proteins in Huh7 lysate, cells with or without 50 ng/ml IL-6 for 20 min (IL-6 enhanced the interaction); 1 ug antibody at 4 C overnight, protein A/G agarose
[2] = target: Janus kinase 2 (JAK2) (human (endogenous in HCC cells)) (UniProt O60674); test: co-IP; endogenous JAK2 and PTP1B in HERC2 knockout and HERC2-overexpressing HCC cells and their controls, treated with 50 ng/ml IL-6 for 20 min
JAK2-GFP = JAK2-GFP (UniProt O60674); test: co-IP; HEK293T co-transfected with JAK2-GFP and PTP1B-HA after transfection with HERC2 or mock plasmids; 50 ng/ml IL-6 for 20 min
HERC2-Flag = HERC2-Flag (UniProt O95714); test: co-IP; HEK293T co-transfected with HERC2-Flag and PTP1B-HA or PTP1B mutant-HA; anti-Flag magnetic beads at 4 C overnight; blot with anti-HA

binding [1]: binds | binding [2]: binds
B1: protein tyrosine phosphatase 1B (PTP1B) (protein, UniProt P18031 1-435)
chain: MEMEKEFEQIDKSGSWAAIYQDIRHEASDFPCRVAKLPKNKNRNRYRDVSPFDHSRIKLHQEDNDYINASLIKMEEAQRSYILTQGPLPNTCGHFWEMVWEQKSRGVVMLNRVMEKGSLKCAQYWPQKEEKEMIFEDTNLKLTLISEDIKSYYTVRQLELENLTTQETREILHFHYTTWPDFGVPESPASFLNFLFKVRESGSLSPEHGPVVVHCSAGIGRSGTFCLADTCLLLMDKRKDPSSVDIKKVLLEMRKFRMGLIQTADQLRFSYLAVIEGAKFIMGDSSVQDQWKELSHEDLEPPPEHIPPPPRPPKRILEPHNGKCREFFPNHQWVKEETQEDKDCPIKEEKGSPLNAAPYGIESMSQDTEVRSRVVGGSLRGAQAASPAKGEPSLPEKDEDHALSYWKPFLVNMCVATVLTAGAYLCYRFLFNSNT

binding (JAK2-GFP): binds | binding (HERC2-Flag): binds
B2: PTP1B-HA (protein, UniProt P18031 1-435)
chain: B1 chain
